# Values quoted from earlier work as cited in patent publication US8697839B2, “GQ protein competitive inhibitory polypeptides, preparation methods and uses thereof” (Third Military Medical University, priority 2008, dated 2014).
# Conditions: clinical dosage converted into the dosage in the mouse; cited from earlier work
smiles,measurement,value
COC(=O)C1=C(C)NC(C)=C(C(=O)OC)C1c1ccccc1[N+](=O)[O-] [nifedipine],ratio of mouse LD50/routine dosage,157
